Measurements reported in PubChem BioAssay AID686943 (Drosophila RNAi Screening Center, 2013)
In all, the deposit lists about 23,000 reagents; this is a random part of those that have a named target and a result. 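Extra replicates exist only for a retested subset of genes; insulin dose and duration not given; both raised and lowered dpERK matter.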 Reagents against one gene are numbered here. Further read-outs or replicates are left out here. Not stated in the record: the amount of reagent, the time to read-out.

Purpose: 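Search across the genome for regulators of signalling from receptor tyrosine kinase to ERK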 (primary screen)
Cell system: Drosophila S2R+ haemocyte-like cells expressing YFP-tagged ERK (Rolled)
Reagents: long dsRNA against Drosophila genes
Challenge: insulin stimulation versus unstimulated cells; dose and duration not given
Measurement: 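Antibody staining for doubly phosphorylated ERK divided by ERK-YFP signal, as plate z-scores, in insulin-treated and untreated cells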
Direction: replicate 1, z-score of dpERK with insulin: higher = more active ERK per ERK-YFP after insulin

replicate 1, z-score of dpERK with insulin, by gene and reagent
Obp56a: #1 0.75
CG15368: #1 -1.73
CG30062: #1 -0.46
CG1265: #1 0.78
CG2811: #1 -0.05
CG33775: #1 -1.66
Lcp65Aa: #1 0.03
Arpc4: #1 -1.96
CG11663: #1 -2.18
CG2127: #1 0.28
CG7458: #1 0.69; #2 0.41
kek4: #1 -0.62
Ir60b: #1 0.78
CG30110: #1 -0.65
Tollo: #1 1.49
CG6753: #1 0.78
CG13455: #1 -0.15
Catsup: #1 -0.16
CG13794: #1 -0.17
Jon65Aiv: #1 0.65
Bdp1: #1 -1.33
rst: #1 -0.48; #2 -0.12

Reprinted from above for reference:
replicate 1, z-score of dpERK with insulin, by gene and reagent
CG1265: #1 0.78
CG2811: #1 -0.05
CG33775: #1 -1.66
